# According to PubChem BioAssay AID758 (NMMLSC, 2007):
# The campaign covered roughly 190,000 compounds. About 110 (0.058%) were called active. The shares of active, inactive and inconclusive entries below differ from those in the screen.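 Rule for the calls: active = fluorescent GTP binding to Rab7 beads changed by at least 20 points from the 100% baseline, either direction, mostly lower; inconclusive = compound itself probably fluorescent, or too few beads counted; inactive = the rest.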
# Tested on: Rab7 GTPase wild type (dog), Bodipy-FL-GTP binding
# Assay: modulators of GTP binding to Rab7, primary screen, biochemical, wildtype, multiplex bead flow cytometry (AID 758);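 note: median green fluorescence of bound Bodipy-FL-GTP per Rab7 bead population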
# Conditions: GST-Rab7 beads, fluorescent GTP binding, at 10 µM, actives lie on both sides, untreated = 100%, excess cold GTP = 0%
row,Compound,GTP binding activity (percent of control)
1,COc1cc2c(C)nc3onc(-c4ccccc4)c3c2cc1OC,inconclusive: 90%
2,CCOC(=O)c1nn(-c2ccc(F)cc2)c(C)c1C(C)=O,inconclusive: 100%
3,CC1CCN(CCCOc2ccc(Br)cc2Cl)CC1,inconclusive: 95%
4,COc1ccc(C)cc1S(=O)(=O)N(C)CC(=O)NC1CC1,inconclusive: 99%
5,COc1ccc(CS(=O)c2nc(C)cc(C)c2S(C)(=O)=O)cc1 (stereo not given),inactive: 98%
6,O=C(O)CSc1ccc2nnc(-c3cccnc3)n2n1,inactive: 98%
7,O=C(c1cccc2ccccc12)N1CCN(c2ccccc2F)CC1,inconclusive: 102%
8,O=C(Cn1nnc(-c2ccccc2)n1)NNC(=O)c1ccc(Br)cc1,inconclusive: 95%
9,CC(OCC(O)CN(C)Cc1nc2ccccc2c(=O)[nH]1)c1ccc(Cl)cc1 (stereo not given),inactive: 97%
10,O=C1CC(c2cccs2)CC2=C1C(c1ccccc1)n1ncnc1N2 (stereo not given),inconclusive: 108%
11,COc1cc(NC(=O)CSc2nnc3c(n2)[nH]c2ccc(S(=O)(=O)NC(C)C)cc23)cc(OC)c1OC,inactive: 94%
12,O=C(N/N=C/c1ccc(OCc2ccccc2)cc1)c1cccs1,inconclusive: 95%
13,CC(=O)/C(N)=N/Nc1cccc(Cl)c1,inconclusive: 98%
14,COC(=O)c1sccc1NC(=O)Cn1cnc2c1c(=O)n(C)c(=O)n2C,inconclusive: 102%
15,Cc1ccc(-c2[nH]nc(N)c2N=Nc2cccc(Cl)c2C)cc1,inconclusive: 97%
16,CSc1ncccc1C(=O)Nc1ccc(S(=O)(=O)NC2=NCCCCC2)cc1,inconclusive: 101%
17,Cn1c(=O)[nH]c(=O)c2c1nc1n2CCN1Cc1ccccc1,inconclusive: 88%
18,CCn1c(C)c(CS(=O)(=O)c2ccccc2)[nH]c1=O,inactive: 103%
19,CCOc1c2ccc(C(=O)N[C@H](C)C3CCCCC3)cc2nn1CCOC,inconclusive: 139%
20,CCC(C)Sc1nc2c(c(=O)[nH]1)C(c1cccs1)C1=C(CCCC1=O)N2 (stereo not given),inconclusive: 91%

row,Compound,GTP binding activity (percent of control)
1,CCCCCc1c(O)nc(SCC(=O)NCC2CCCO2)[nH]c1=O (stereo not given),inactive: 95%
2,COc1cccc(N2CC(O)=C(c3ccccc3)C2=N)c1,inactive: 91%
3,COC(=O)c1cc2occc2n1Cc1c(F)cccc1Cl,inconclusive: 93%
4,Cc1cc(C)cc(OCC(=O)Nc2nonc2NC(=O)COc2cc(C)cc(C)c2)c1,inactive: 95%
5,Cn1c(SCc2cc(=O)[nH]c3ccccc23)nnc1-c1ccco1,inconclusive: 107%
6,Cc1cc(C(=O)COC(=O)CCC(=O)c2ccc3c(c2)OCCO3)c(C)n1Cc1ccco1,inconclusive: 93%
7,O=C(O)/C=C/C(=O)NC1CCS(=O)(=O)C1 (stereo not given),inconclusive: 99%
8,O=C(NCc1cccnc1)c1ccc(-c2cccc(Cl)c2Cl)o1,inconclusive: 95%
9,C=CCn1c(C)cc(C(=O)COC(=O)/C=C/c2cccc(OC)c2)c1C,inconclusive: 87%
10,Cn1nc(C(=O)OCC(=O)Nc2ccc3ccccc3c2)c2ccccc2c1=O,inconclusive: 91%
11,CCCC(=O)c1cc2c(cc1NC(=O)c1ccccc1F)OCCO2,inactive: 98%
12,CCOc1ccc(S(=O)(=O)N/N=C(\C)c2ccc(Cl)c(Cl)c2Cl)cc1,inconclusive: 90%
13,O=C(Nc1ccc(N2CCOCC2)nc1)c1ccc(C(F)(F)F)cc1,inconclusive: 89%
14,O=C(NN=C1CCCC1)c1sc2ccccc2c1Cl,inconclusive: 94%
15,Cc1cc(C)nc(NC(=O)COc2cc(Cl)cc(Cl)c2)n1,inconclusive: 102%
16,CCCC(CCC(=O)Nc1cc([N+](=O)[O-])ccc1O)C(=O)O (stereo not given),inconclusive: 95%
17,O=C(N/N=C\c1ccc(F)cc1)c1cc(OCC(F)(F)F)ccc1OCC(F)(F)F,inconclusive: 100%
18,N#CC(C#N)=Cc1ccc(-c2ccc(S(=O)(=O)N=C(N)N)cc2)o1,inconclusive: 92%
19,O=C(N/N=C/c1ccc(-c2ccccc2[N+](=O)[O-])o1)[C@H]1C[C@@H]1c1ccccc1,inconclusive: 96%
20,N#CCCN(C(=O)COC(=O)c1cccc(S(=O)(=O)Nc2ccc([N+](=O)[O-])cc2)c1)c1ccccc1,inconclusive: 96%

# An excerpt of these results, with tabs:
row	Compound	GTP binding activity (percent of control)
4	Cc1cc(C)cc(OCC(=O)Nc2nonc2NC(=O)COc2cc(C)cc(C)c2)c1	inactive: 95%
5	Cn1c(SCc2cc(=O)[nH]c3ccccc23)nnc1-c1ccco1	inconclusive: 107%

# The list goes on:

row,Compound,GTP binding activity (percent of control)
1,O=C(Nc1nc(-c2ccc(S(=O)(=O)N3CCCCCC3)cc2)cs1)c1ccccc1,inconclusive: 94%
2,CCOC(=O)C1=C(c2ccccc2)Nc2nc(C)nn2C1c1cccc(OC)c1OC (stereo not given),inactive: 98%
3,O=C1CS/C(=N/N=C2C3CC4CC(C3)CC2C4)N1,inconclusive: 132%
4,O=C(Nc1cccc(O)c1)c1cccc(S(=O)(=O)N2CCCC2)c1,inconclusive: 90%
5,O=C1NC(=Nc2ccc(F)cc2)CS1,inactive: 95%
6,CCOc1ccc(NC(=O)c2cc(F)c(F)cc2Cl)cc1OCC,inactive: 101%
7,Cc1ccc(-c2nnc(Nc3ccccc3)o2)cc1,inconclusive: 107%
8,COc1ccccc1NC(=O)c1ccccc1C(=O)O,inconclusive: 94%
9,CC1CCc2onc(C(=O)NCc3ccco3)c2C1 (stereo not given),inconclusive: 105%
10,COc1ccc(-n2c(SCc3cn4c(C)cccc4n3)nc3ccccc3c2=O)cc1OC,inactive: 105%
11,O=Cc1cn(CC(=O)N2CCc3ccccc32)c2ccccc12,inactive: 107%
12,Cc1ccc(-c2ccc(/C=N/NC(=O)CN3CCCC3)o2)cc1Cl,inconclusive: 125%
13,CC(CNC(=O)CC(C)(C)C)NC(=O)CC(C)(C)C (stereo not given),inconclusive: 93%
14,Cc1ccc(CN2CCN(CC(=O)O)C2=O)cc1,inactive: 105%
15,NS(=O)(=O)c1cccnc1Nc1c(Cl)cccc1Cl,inconclusive: 149%
16,Cc1c(C2OC(=O)C3(CCCCC3)C(=O)C2(C)C)c(=O)n(-c2ccccc2)n1C (stereo not given),inconclusive: 102%
17,CCCNC(=O)c1cc2nc(-c3ccccc3)cc(C(F)(F)F)n2n1,inconclusive: 103%
18,Cc1ccc(-c2nnc(SCC(=O)N/N=C/c3ccc(C)s3)n2-c2ccccc2)cc1,inconclusive: 95%
19,Cc1ccc(SCC(=O)Nc2ccc(N3CCOCC3)cc2)c(C)c1,inactive: 106%
20,O=C(C1CCN(c2ncnc3c2sc2cccc(F)c23)CC1)N1CCOCC1,inactive: 100%

# Taken from above:
# In GTP binding activity (percent of control), COc1ccc(-n2c(SCc3cn4c(C)cccc4n3)nc3ccccc3c2=O)cc1OC has inactive: 105%
# In GTP binding activity (percent of control), O=C(Nc1cccc(O)c1)c1cccc(S(=O)(=O)N2CCCC2)c1 has inconclusive: 90%
